Experimental data from patent US6469195B1, “2-phenoxyphenylacetic acid derivatives, method and intermediate products for the production thereof, their use, and agents containing the same for combating fungicidal pests” (BASF Aktiengesellschaft, priority 1998, dated 2002).
Some results were stated once for a whole list of compounds, not compound by compound.

How the values were obtained:
[1] = test system: powdery mildew of wheat (Erysiphe graminis forma specialis tritici); test: Activity against powdery mildew of wheat (protective spray, greenhouse); assay type: in vivo; settings: 250 ppm active compound; wheat seedlings cv. Fruhgold; dusted with spores 24 hours after spraying; assessed visually after 7 days; untreated plants 90% infection
[2] = test system: Plasmopara viticola; test: Activity against Plasmopara viticola (persistency test on grapevines); assay type: in vivo; settings: 16 ppm active compound; grapevines cv. Müller-Thurgau; inoculated 7 days after spraying; assessed visually; untreated plants 90% infection

Row | Structure (SMILES) | infection (% infection of the total leaf area) [1] | infection (extent of the infection on the undersides of the leaves) [2]
1 | CNC(=O)/C(=N/OC)c1ccccc1Oc1cccc(-c2ccc(Cl)cc2)c1 [I-1, 2-[2-(4′-Chlorobiphenyl-3-yloxy)phenyl]-2-methoxyimino-N-methylacetamide] | at most 5% | at most 5%
2 | CNC(=O)/C(=N/OC)c1ccccc1Oc1cccc(-c2ccc(C)cc2)c1 [I-2] | at most 5% | at most 5%
3 | CNC(=O)/C(=N/OC)c1ccccc1Oc1cccc(-c2ccc(C(C)C)cc2)c1 [I-3] | at most 5% | –
4 | CNC(=O)/C(=N/OC)c1ccccc1Oc1cccc(-c2cccc(F)c2)c1 [I-4] | at most 5% | at most 5%
5 | CNC(=O)/C(=N/OC)c1ccccc1Oc1cccc(-c2ccc(Br)cc2)c1 [I-5] | at most 5% | at most 5%
6 | CNC(=O)/C(=N/OC)c1ccccc1Oc1cccc(-c2ccc(Cl)cc2Cl)c1 [I-6] | at most 5% | at most 5%
7 | CNC(=O)/C(=N/OC)c1ccccc1Oc1cccc(-c2ccc(C(C)=O)cc2)c1 [I-9] | – | at most 5%
8 | CNC(=O)/C(=N/OC)c1ccccc1Oc1cccc(-c2ccc(C=O)cc2)c1 [I-10] | at most 5% | at most 5%
9 | CNC(=O)/C(=N/OC)c1ccccc1Oc1cccc(-c2ccccc2OC)c1 [I-11] | at most 5% | at most 5%
10 | CNC(=O)/C(=N/OC)c1ccccc1Oc1cccc(-c2ccc(C(C)(C)C)cc2)c1 [I-12] | at most 5% | –
11 | CNC(=O)/C(=N/OC)c1ccccc1Oc1cccc(-c2ccc(F)cc2)c1 [I-13] | at most 5% | at most 5%
12 | CNC(=O)/C(=N/OC)c1ccccc1Oc1cccc(-c2cc(Cl)cc(Cl)c2)c1 [I-14] | at most 5% | –
13 | CNC(=O)/C(=N/OC)c1ccccc1Oc1cccc(-c2cc(C(F)(F)F)cc(C(F)(F)F)c2)c1 [I-15] | at most 5% | –
14 | CNC(=O)/C(=N/OC)c1ccccc1Oc1cccc(-c2ccc(C(C)=NOC)cc2)c1 [I-16] | at most 5% | at most 5%
15 | CNC(=O)/C(=N/OC)c1ccccc1Oc1cccc(-c2ccc(C=NOC)cc2)c1 [I-17] | at most 5% | –
16 | CNC(=O)/C(=N/OC)c1ccccc1Oc1cccc(-c2ccc(F)c(Cl)c2)c1 [I-18] | at most 5% | at most 5%
17 | CNC(=O)/C(=N/OC)c1ccccc1Oc1cccc(-c2ccccc2C)c1 [I-19] | at most 5% | at most 5%
18 | CNC(=O)/C(=N/OC)c1ccccc1Oc1cccc(-c2cccc(C(F)(F)F)c2)c1 [I-20] | at most 5% | at most 5%
19 | CNC(=O)/C(=N/OC)c1ccccc1Oc1ccc(F)c(-c2ccc(C)cc2)c1 [I-22, 2-[2-(6-Fluoro-4′-methylbiphenyl-3-yloxy)phenyl]-2-methoxyimino-N-methylacetamide] | at most 5% | at most 5%
20 | CNC(=O)/C(=N/OC)c1ccccc1Oc1ccc(F)c(-c2ccc(F)cc2)c1 [I-23] | at most 5% | at most 5%
21 | CNC(=O)/C(=N/OC)c1ccccc1Oc1ccc(F)c(-c2ccc(Cl)cc2)c1 [I-24] | at most 5% | at most 5%
